Experimental data taken from patent publication US10662150B2, “Sulfonic acid salt composition and use thereof for color stabilization” (L. BRÜGGEMANN GMBH & CO. KG, priority 2016, dated 2020).

Experiment: Color stabilization of superabsorbent polymers (Hunter b-value)
Settings: for Increase in b-value (after 26 days) in %: 100 g SAP treated with 3 g of a 1% solution, stored at 60° C. and 90% relative humidity

| Compound | Increase in b-value (after 26 days) in % | b-value (day 0) (SAP powder treated with 3 g of a 1% solution per 100 g, Hunter b-value before storage) |
| --- | --- | --- |
| 2-hydroxy-2-sulfonatoacetic acid disodium salt [reference compound] | +16.7% |  |
| O=C([O-])C(O)S(=O)(=O)[O-].[Mg+2] (stereo not drawn) [Example 2, Magnesium-Salt of 2-Hydroxy-2-Sulfonatoacetic Acid] |  | 3.01 |
| Mixed Magnesium-Zinc-Salt of 2-Hydroxy-2-Sulfonatoacetic Acid [Example 3] | +11.7% |  |
